Test results: publication PMC4756710
These are yes or no findings as the source states them, for the method shown. In cells and extracts the contact can be indirect. Binding can be weak; no strength is given. Where a sequence is shown, tags or fusion partners need not be part of it.

Biological target: T1, HA-tagged WT ZEB1, full length, in vitro synthesized (UniProt P37275)
T1 sequence: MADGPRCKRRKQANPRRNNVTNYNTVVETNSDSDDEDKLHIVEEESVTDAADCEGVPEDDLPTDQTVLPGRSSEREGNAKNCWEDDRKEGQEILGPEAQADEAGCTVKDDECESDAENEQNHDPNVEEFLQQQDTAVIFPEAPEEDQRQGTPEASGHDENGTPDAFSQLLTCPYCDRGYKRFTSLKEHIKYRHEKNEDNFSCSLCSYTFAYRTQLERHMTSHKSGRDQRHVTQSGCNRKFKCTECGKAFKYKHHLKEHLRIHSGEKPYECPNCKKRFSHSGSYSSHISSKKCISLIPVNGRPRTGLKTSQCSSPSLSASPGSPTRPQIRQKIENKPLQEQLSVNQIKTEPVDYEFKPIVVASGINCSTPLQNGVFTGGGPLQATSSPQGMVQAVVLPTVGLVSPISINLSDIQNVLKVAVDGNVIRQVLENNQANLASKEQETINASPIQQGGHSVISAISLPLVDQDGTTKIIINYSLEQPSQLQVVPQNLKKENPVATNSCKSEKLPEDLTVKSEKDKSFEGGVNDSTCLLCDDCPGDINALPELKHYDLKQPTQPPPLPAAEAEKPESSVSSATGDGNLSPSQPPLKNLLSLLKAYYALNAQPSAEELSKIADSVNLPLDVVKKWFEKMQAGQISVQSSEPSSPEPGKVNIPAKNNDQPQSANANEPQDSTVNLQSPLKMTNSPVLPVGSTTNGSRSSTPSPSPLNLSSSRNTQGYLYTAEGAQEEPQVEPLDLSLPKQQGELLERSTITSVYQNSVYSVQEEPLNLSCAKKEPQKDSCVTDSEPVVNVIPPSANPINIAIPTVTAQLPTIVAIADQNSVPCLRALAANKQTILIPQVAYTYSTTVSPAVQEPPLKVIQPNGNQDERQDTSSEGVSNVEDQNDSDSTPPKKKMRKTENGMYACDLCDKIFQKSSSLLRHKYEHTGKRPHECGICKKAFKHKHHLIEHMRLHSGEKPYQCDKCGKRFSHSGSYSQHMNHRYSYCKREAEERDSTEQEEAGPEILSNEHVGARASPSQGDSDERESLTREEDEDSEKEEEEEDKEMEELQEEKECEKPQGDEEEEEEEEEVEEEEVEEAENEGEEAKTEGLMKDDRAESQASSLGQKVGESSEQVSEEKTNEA
Assay: pull-down; in vitro translated proteins (wheat germ) incubated in pull-down buffer (250 mM sucrose, 10 mM MOPS/KOH pH 7.2, 80 mM KCl, 5 mM MgCl2, 5 mM KH2PO4) 1 h at 37 °C; HA-ZEB1 held on anti-HA affinity matrix, 1 h at 4 °C, five washes; western blot (anti-His)

## His-tagged YAP fragment p2 (central WW-repeat containing domain) (domain or fragment)
  binding: binds
